In article PMC4193777 (PLoS ONE, 2014):

Tested on: neutrophils
Test: Inhibition of FPR2 agonist-induced superoxide by pertussis toxin or kinase inhibitors
Assay type: cell-based, human
Conditions: inhibitors 20 nM to 1 µM (1 µM shown), 15 min at 37°C; WKYMVM 50 nM, F2Pal10 500 nM; n = 3
Method: Human peripheral blood neutrophils were isolated from buffy coats from healthy blood donors using dextran sedimentation and Ficoll-Paque gradient centrifugation as described. The remaining erythrocytes were disrupted by hypotonic lysis, the neutrophils were washed twice, resuspended in KRG, and stored on melting ice until use. This isolation procedure permits cells to be purified with minimal granule mobilization.
The NADPH-oxidase activity was determined using isoluminol-enhanced chemiluminescence (CL), [27]. The CL activity was measured in a six-channel Biolumat LB 9505 (Berthold Co., Wildbad, Germany), using disposable 4-ml polypropylene tubes with a 900 µl reaction mixture containing 10^5 cells, isoluminol (2×10^−5 M) and HRP (2 U). The tubes were equilibrated in the Biolumat for 5 min at 37°C, after which the stimulus (100 µl) was added and the light emission was recorded continuously. […]
A. Primary human neutrophils were treated with pertussis toxin (PTX, 500 ng/ml final concentration) and samples were withdrawn at indicated time points. […] Abscissa, time of study (sec); ordinate, fluorescence (arbitrary unit). […]
The effects of these inhibitors were determined using different concentrations ranging from 20 nM to 1 µM.

In the case of `CN[C@@H]1C[C@H]2O[C@@](C)([C@@H]1OC)n1c3ccccc3c3c4c(c5c6ccccc6n2c5c31)C(=O)NC4` [Staurosporine], the “inhibition of F2Pal10- and WKYMVM-induced superoxide by kinase inhibitor” value is reported as “Very similar degrees of inhibition”.
